Primary screen of a compound library

Toxoplasma: 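Assay of Toxoplasma gondii numbers, read through their beta-galactosidase reporter with a colour substrate. Tested at 10 µM. The record gives no direction; the compounds picked for IC50 retests had high values, so higher reads as fewer parasites. About 67,000 compounds were tested under these conditions; 0.38% (about 260) showed 50% or more at least once.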
T. brucei: 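Whole-parasite assay of Trypanosoma brucei over 72 hours; the read-out is not stated. Tested at 30 µM. The record gives no direction; compounds that gave an IC50 in retests scored well above the rest, so higher reads as stronger inhibition. Values scatter widely below zero; nearly all retest evidence comes from the higher of the two concentrations used. Size under these conditions: about 64,000 compounds, about 940 of them at 50% or above in at least one test.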

Each number is a percent effect as filed.
The controls that fix the scale are not given in the record; negative values are as filed.
The compounds are a random part of those screened.

structure: Cc1cc(-c2nn3c(C(C)C)nnc3s2)on1
Toxoplasma: -17.05
T. brucei: 6.734

structure: NC(=O)C1CCN(C(=O)NCc2ccccc2-n2cccn2)CC1
Toxoplasma: 7.441
T. brucei: 13.79

structure: NCC(CO)Cc1cccc(OC(F)(F)F)c1 (stereo not shown)
Toxoplasma: 0.3442
T. brucei: 97.23

structure: O=C(c1ccco1)N1CCCC2(C1)CN(c1nncs1)CCO2 (stereo not shown)
Toxoplasma: 14.87
T. brucei: -72.21

structure: Cc1cc(C(=O)N2CCCC(N3CCCCCC3)C2)nn1C(C)(C)C (stereo not shown)
Toxoplasma: -5.596
T. brucei: -1.482

structure: [H][C@]12CCC[C@@]1(COC)CN(C(=O)COC1CCCC1)C2
Toxoplasma: -16.76
T. brucei: -9.426

structure: Cc1cc(C(=O)N2CCC(c3nccn3Cc3ccncc3)CC2)no1
Toxoplasma: 3.503
T. brucei: -77.57

structure: CC(Nc1nc2c(cnn2C)c(=O)[nH]1)c1ccc(F)cc1 (stereo not shown)
Toxoplasma: -0.4142
T. brucei: -23.37

structure: Cc1ccc(-c2cc(C(=O)NCC3CCOC3)n[nH]2)s1 (stereo not shown)
Toxoplasma: -7.735
T. brucei: -10.75

structure: O=C(NCc1ccccn1)NC1CCCN(c2ncccn2)C1 (stereo not shown)
Toxoplasma: -3.143
T. brucei: 15.59

structure: CCCn1cnnc1CN(C)C(=O)C1CCC(=O)N(C2CCCC2)C1 (stereo not shown)
Toxoplasma: 5.792
T. brucei: 7.338

structure: [H][C@@]12CN(c3ccc(C)nn3)C[C@H](C(=O)N3CCOCC3)[C@]1([H])CCO2
Toxoplasma: -8.143
T. brucei: 0.2305

structure: Cc1occc1C(=O)NC1CCN(C(=O)Nc2cccnc2)CC1
Toxoplasma: -6.483
T. brucei: -10.87

structure: CN(CC(=O)NS(=O)(=O)c1ccsc1)Cc1ccccc1
Toxoplasma: 4.017
T. brucei: 3.905

structure: CCN(CC)C(=O)c1cc(C2CCCN2C)ccn1.O=CO (stereo not shown)
Toxoplasma: 28.76
T. brucei: -8.717

structure: Cc1cccc(S(=O)(=O)NC2CCN(CC(F)(F)F)C2)c1 (stereo not shown)
Toxoplasma: -36.15
T. brucei: -53.09

structure: N#Cc1cccnc1N1CCCC(CO)(Cc2ccccc2F)C1 (stereo not shown)
Toxoplasma: -15.06
T. brucei: -21.79

structure: [H][C@@]12CCN(S(C)(=O)=O)[C@@]1([H])CCN2C(=O)c1cc(C)oc1C
Toxoplasma: -25.84
T. brucei: -71.76

structure: Cc1nn(C)c(C)c1CC(C)NC(=O)NCc1ccoc1C (stereo not shown)
Toxoplasma: 4.019
T. brucei: -25.27

structure: CC(C(=O)NC(N)=O)N1CCN(c2ccc(C#N)cc2F)CC1 (stereo not shown)
Toxoplasma: 11.03
T. brucei: -21.58

structure: [H][C@@]12CN(C(=O)c3ccc(C)nc3)C[C@]1([H])CN(c1ncccn1)C2
Toxoplasma: -10.52
T. brucei: -31.8

structure: CCc1nc(C)sc1CN1CC[C@@](O)(CCOC)[C@H](C)C1
Toxoplasma: 20.62
T. brucei: -20.11

structure: c1cncc(CN2CCn3cc(Cn4cccn4)nc3C2)c1
Toxoplasma: 19.37
T. brucei: -43.27

structure: CNS(=O)(=O)CCCNC(C)(C)c1nc(C)cs1
Toxoplasma: 7.553
T. brucei: -31.63

structure: O=c1c(CN2CCCCCC2)coc(O)c1CN1CCOCC1
T. brucei: 10.3

structure: CN(CCC1CCCCO1)c1nncc(-c2ccccc2)n1 (stereo not shown)
Toxoplasma: -1.175
T. brucei: -4.84

structure: COC(=O)C1(C)CCN(C(=O)NCCc2c(C)[nH]c3ccccc23)C1 (stereo not shown)
Toxoplasma: -2.575
T. brucei: -21.57

structure: Cc1noc(Cl)c1CCC(=O)N1CCN(c2ccccc2)CC1
Toxoplasma: 15.14
T. brucei: 16.11

structure: Cc1nnc2n1CCN(CCOc1ccccc1)C2
Toxoplasma: -25.25
T. brucei: -0.4504

Once more, the final 2:

- Cc1noc(Cl)c1CCC(=O)N1CCN(c2ccccc2)CC1 | Toxoplasma: 15.14%; T. brucei: 16.11%
- Cc1nnc2n1CCN(CCOc1ccccc1)C2 | Toxoplasma: -25.25%; T. brucei: -0.4504%

Source: ChEMBL document CHEMBL3988442, “University of Dundee, Small-Polar-MMV Screening Library” (2021).